The text below walks through data of publication PMC7819943, “Rice protein-binding microarrays: a tool to detect cis-acting elements near promoter regions in rice”.

Amino acid sequences for entries named in this document (tags omitted).
UniProt Q0JBA9, entry or part of it: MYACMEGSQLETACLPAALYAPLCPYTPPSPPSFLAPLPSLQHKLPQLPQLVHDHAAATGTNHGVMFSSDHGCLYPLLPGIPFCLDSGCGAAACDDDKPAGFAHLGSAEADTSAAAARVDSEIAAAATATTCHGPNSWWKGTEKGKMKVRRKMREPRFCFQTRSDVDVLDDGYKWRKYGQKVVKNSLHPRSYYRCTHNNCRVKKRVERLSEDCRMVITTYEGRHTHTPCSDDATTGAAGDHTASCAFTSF

This is one part of the list.

The target in the experiment is OsWRKY34 (Oryza sativa, UniProt Q0JBA9 1-250). Put plainly: protein-binding microarray (RPBM); PBS, 2% BSA, 51.3 ng/ul salmon testes DNA, 50 uM zinc acetate, 200 nM TF, 25 C, 1 h; high values mean tight binding. Conditions: protein: recombinant; tags: N-terminal polyhistidine and DsRed monomer fusion (pET32a); label: CyDye5-dUTP incorporated in the synthesized complementary strand; 3' TTTTT single-stranded linker to array surface; dsDNA, one strand shown. The method, boiled down:
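The binding signal for each feature is its fluorescence intensity in arbitrary units. An Axon 4000B scanner was used to read a custom Agilent array that had been made double-stranded with Cy5-dUTP primer extension, blocked with 2% BSA, incubated at 25 °C for 1 h with 200 nM protein in PBS, 2% BSA, salmon testes DNA and 50 µM zinc acetate, and washed. The protein was an N-terminal polyhistidine–DsRed transcription factor fusion from E. coli BL21-CodonPlus, purified on Ni–NTA.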
As for “GCATAGTTGCATTCCCGACTTCTTATTGACTTTTTTTTTACGGAGTCACCTAGTGCAG”, the binding signal is 9530 fluorescence intensity (a.u.).

For the sequence “CCTGTCCGGTTCTTGTTCTGGTGCTGCTTTGCTCGACACCCGGAGTCACCTAGTGCAG”, the binding signal is 13800 fluorescence intensity (a.u.).

Take “TTTGTTCGATTTGTTGAGATTTACGCTGTTGATTTTATGACGGAGTCACCTAGTGCAG”: the binding signal is 9550 fluorescence intensity (a.u.).

Turning to “GGGCTTTGGTGGGCTTTAAAGAACTCGTAGTATAGCTATTCGGAGTCACCTAGTGCAG”, the binding signal was 8860 fluorescence intensity (a.u.).

Turning to “AGTGCTTTAGGTTCGTTCAGCTCGTTTCACCCGTAAGCCTCGGAGTCACCTAGTGCAG”, the binding signal is 8360 fluorescence intensity (a.u.).

Take “CTCCCTTTTCTTTTCTTCCTTTTTGGCCAAATTTTCAAATCGGAGTCACCTAGTGCAG”: the binding signal was 9060 fluorescence intensity (a.u.).

For “TCCTAACCTCTACTTATTTTTCATGTGCAGTTTTCCGAACCGGAGTCACCTAGTGCAG”, the binding signal was 12500 fluorescence intensity (a.u.).

For the sequence “GCCATTTCGCCGAGCGCCTTCCCGGCGAGCCCGCGCTCCACGGAGTCACCTAGTGCAG”, the binding signal is 8110 fluorescence intensity (a.u.).

Consider “TCTTGCTTTCATATTGGCCCACTTGAGAATTCTCACTCTTCGGAGTCACCTAGTGCAG”, for which the binding signal was 14200 fluorescence intensity (a.u.).

Consider “TCAGGGGTATTGAAGGGATTGAGTAAATTTTCAGGGGTATCGGAGTCACCTAGTGCAG”, for which the binding signal is 9330 fluorescence intensity (a.u.).

Regarding “CTCCGATCCGGTTACTCTATCCATGTCGCACTCTTTCTCGCGGAGTCACCTAGTGCAG”, the binding signal was 11500 fluorescence intensity (a.u.).

With “ATAACATGGTCTTTATGAATGCGTTGGTTTTATGTTATACCGGAGTCACCTAGTGCAG”, the binding signal is 8070 fluorescence intensity (a.u.).

Regarding “ACTATTCCACTCTCTAACCTTATCATCACTTCAATACACACGGAGTCACCTAGTGCAG”, the binding signal was 8030 fluorescence intensity (a.u.).

For “TGAGTTTTTACTTGCAACGTTTGACCACTCGTCTTATTCACGGAGTCACCTAGTGCAG”, the binding signal was 11400 fluorescence intensity (a.u.).

On to “CGTCCACGGCCCATTTTTCATTCACGGGCCCGTACTGACACGGAGTCACCTAGTGCAG”, for which the binding signal is 8910 fluorescence intensity (a.u.).

Consider “GGTTGGGGAAGTATGTGCGCAAAAAACAAGGGATTTTTCTCGGAGTCACCTAGTGCAG”, for which the binding signal is 13700 fluorescence intensity (a.u.).

With “ACTTTTTTTTTTCTACTTGTTTGATATACCTGTCAGCATGCGGAGTCACCTAGTGCAG”, the binding signal is 9910 fluorescence intensity (a.u.).

Take “AATACTCCCTCCGTTTCGAAATATTTGACGCCGTTGACTTCGGAGTCACCTAGTGCAG”: the binding signal is 12400 fluorescence intensity (a.u.).

In the case of “GGCCCACCTGCTTTAACCGTCGTCTTCTCCATTTCCGTTTCGGAGTCACCTAGTGCAG”, the binding signal was 8620 fluorescence intensity (a.u.).

Regarding “TTTTTTTCCAATGTCGCATGTGTGTGAAACATTTTTTACTCGGAGTCACCTAGTGCAG”, the binding signal was 8690 fluorescence intensity (a.u.).

On to “GGTCCCACATTTGCTGAATTTTCTCGTTTCTTCCGACATACGGAGTCACCTAGTGCAG”, for which the binding signal was 9760 fluorescence intensity (a.u.).

For “GGGAGGGGAGCGGCTGCGCACGCCGGCGAGCGCTGTGAATCGGAGTCACCTAGTGCAG”, the binding signal is 9750 fluorescence intensity (a.u.).

“CACACTACTACTACTGTCTACTGCCACGCCGCCGTAACCACGGAGTCACCTAGTGCAG”: the binding signal was 8190 fluorescence intensity (a.u.).
